Values from PubChem BioAssay AID743121 (NCATS, 2013).
Assay: 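Knock-downs that sensitise breast cancer cells to camptothecin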 (primary screen). Cell system: MDA-MB-231 cells, a human breast cancer line. Reagents: single siRNA against human genes, 20 nM siRNA (0.8 pmol per well). Time to read-out: 120 h (drug added 48 h after transfection, read 72 h later). Challenge: camptothecin 20 nM (about EC30) for 72 h; vehicle 0.1% DMSO in parallel plates. Detection: 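CellTiter-Glo ATP signal, scaled to control siRNA as percent viability; sensitisation given as log2 of untreated divided by camptothecin-treated viability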. Reading the numbers: log2 vehicle/camptothecin viability: higher = stronger sensitisation to camptothecin; viability with camptothecin and viability without drug: higher = more viable cells. Rule for the call: 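Active genes have an RSA gene-level p-value below 0.001, computed from the ratios of their separate siRNAs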.
Shown is an unselected part of about 26,000 reagents tested. 167 of all reagents (0.63%) count as active. 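Calls are per gene from RSA p-values that are not deposited; an individual active-marked siRNA can sensitise only weakly.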 A number with no mark means an inactive call. Reagents against one gene are numbered here. No sequences are given here.

no.	Gene	reagent no.	log2 vehicle/camptothecin viability	viability with camptothecin (% of control)	viability without drug (% of control)
1	NAA16 (GeneID 79612)	1	-0.0802	87.6	82.8
2	NAA16 (GeneID 79612)	2	0.00221	104	105
3	NAA16 (GeneID 79612)	3	-0.31	129	104
4	NAA16 (GeneID 79612)	4	-0.36	58.2	45.3
5	DZIP3 (GeneID 9666)	1	-0.265	101	84
6	DZIP3 (GeneID 9666)	2	0.0769	109	115
7	DZIP3 (GeneID 9666)	3	0.224	84.3	98.5
8	BMP15 (GeneID 9210)	1	-0.255	71.2	59.7
9	BMP15 (GeneID 9210)	2	-0.214	106	91.1
10	BMP15 (GeneID 9210)	3	0.232	81.5	95.6
11	BMP15 (GeneID 9210)	4	0.382	64	83.4
12	TRPV5 (GeneID 56302)	1	-0.257	54.7	45.8
13	TRPV5 (GeneID 56302)	2	-0.407	52.4	39.5
14	TRPV5 (GeneID 56302)	3	0.0878	95.2	101
15	TRPV5 (GeneID 56302)	4	-0.22	98.3	84.4
16	PPP1R1C (GeneID 151242)	1	-0.337	68.9	54.5
17	PPP1R1C (GeneID 151242)	2	-0.109	30.4	28.2
18	PPP1R1C (GeneID 151242)	3	0.325	56.2	70.4
19	PPP1R1C (GeneID 151242)	4	0.0811	70.4	74.5
20	NR0B1 (GeneID 190)	1	-0.0254	86.3	84.8
21	NR0B1 (GeneID 190)	2	0.214	87	101
22	NR0B1 (GeneID 190)	3	-0.616	31.6	20.6
23	NR0B1 (GeneID 190)	4	-0.0256	104	102
24	TLR7 (GeneID 51284)	1	-0.491	66.8	47.6
25	TLR7 (GeneID 51284)	2	-0.0196	111	110
26	TLR7 (GeneID 51284)	3	-0.158	95.1	85.3
27	TLR7 (GeneID 51284)	4	-0.362	107	83.3

Next part (4 carried over from the part before).
no.	Gene	reagent no.	log2 vehicle/camptothecin viability	viability with camptothecin (% of control)	viability without drug (% of control)
24	TLR7 (GeneID 51284)	1	-0.491	66.8	47.6
25	TLR7 (GeneID 51284)	2	-0.0196	111	110
26	TLR7 (GeneID 51284)	3	-0.158	95.1	85.3
27	TLR7 (GeneID 51284)	4	-0.362	107	83.3
28	RHOU (GeneID 58480)	1	-0.343	54.3	42.8
29	RHOU (GeneID 58480)	2	-0.203	19.4	16.8
30	RHOU (GeneID 58480)	3	-0.17	117	104
31	RHOU (GeneID 58480)	4	-0.19	71	62.2
32	JADE3 (GeneID 9767)	1	-0.0321	39.5	38.7
33	JADE3 (GeneID 9767)	2	-0.15	44.2	39.9
34	JADE3 (GeneID 9767)	3	-0.166	101	90.3
35	JADE3 (GeneID 9767)	4	-0.403	106	80.3
36	MSX1 (GeneID 4487)	1	0.0411	79.4	81.7
37	MSX1 (GeneID 4487)	2	-0.32	53.8	43.1
38	MSX1 (GeneID 4487)	3	-0.0909	104	97.5
39	MSX1 (GeneID 4487)	4	-0.084	110	103
40	EDA (GeneID 1896)	1	0.338	1.63	2.06
41	EDA (GeneID 1896)	2	-0.193	65.4	57.2
42	EDA (GeneID 1896)	3	-0.555	58.1	39.5
43	EDA (GeneID 1896)	4	-0.29	48.5	39.7
44	USP9X (GeneID 8239)	1	-0.173	70.1	62.2
45	USP9X (GeneID 8239)	2	0.245	95.2	113
46	USP9X (GeneID 8239)	3	-0.332	59.9	47.6
47	USP9X (GeneID 8239)	4	-0.109	129	120
